Experimental data: PubChem BioAssay AID1259254 (NCATS, 2017)
Shown is an unselected part of about 59,000 reagents. Of all reagents, about 1,550 (2.6%) got an active call. 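G2 share is only a proxy for re-replication; each gene was hit by three separate siRNAs, and active genes were retested.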 Raw values vary from plate to plate and are shown uncorrected. The numbers tell different reagents against one gene apart. Reagent sequences are not shown. Not given: the amount of reagent.

- Screen: 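Gene knock-downs that lead to re-replication, shown by excess G2 DNA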 (primary screen)
- Cell system: human HCT116 colorectal cancer cells
- Reagent: single siRNA against human genes
- Duration: 3 days
- Detection: 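Imaged Hoechst DNA stain sorts each cell into a cycle phase by DNA amount; per plate, G2 fraction set to 0% for non-targeting and 100% for GMNN siRNA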
- Direction: G2 robust z-score and G2 cells, % of GMNN control: higher = more G2 cells, more excess DNA replication; raw share of cells in G2: higher = larger share of cells with G2 DNA content
- Call rule: 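Active siRNAs have a G2 robust z of 5 or more median absolute deviations over the median, which in these data means about 38% or higher of GMNN control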

| Target gene | siRNA no. | G2 robust z-score | G2 cells, % of GMNN control | raw share of cells in G2 (%) | call |
| --- | --- | --- | --- | --- | --- |
| TRMU | 1 | 3.71 | 29.1 | 16.4 | inactive |
| TRMU | 2 | 0.637 | 7.45 | 7.11 | inactive |
| TRMU | 3 | -0.981 | -3.93 | 4.71 | inactive |
| MYO5A | 1 | -0.0665 | 2.5 | 6.46 | inactive |
| MYO5A | 2 | -0.802 | -2.68 | 2.31 | inactive |
| MYO5A | 3 | 0.533 | 6.72 | 7.96 | inactive |
| CHCHD2P10 | 1 | 0.12 | 3.81 | 6.37 | inactive |
| CHCHD2P10 | 2 | -0.131 | 2.05 | 4.56 | inactive |
| CHCHD2P10 | 3 | 1.47 | 13.3 | 8.81 | inactive |
| ACTN1 | 1 | 0.00769 | 3.02 | 5.12 | inactive |
| ACTN1 | 2 | -0.307 | 0.81 | 5.36 | inactive |
| ACTN1 | 3 | 0.971 | 9.8 | 8.06 | inactive |
| MYO6 | 1 | -0.269 | 1.07 | 3.55 | inactive |
| MYO6 | 2 | -0.106 | 2.22 | 6.35 | inactive |
| MYO6 | 3 | 0.21 | 4.44 | 7.08 | inactive |
| TPX2 | 1 | 20.4 | 146 | 54 | active |
| TPX2 | 2 | 13.7 | 99.7 | 46.4 | active |
| TPX2 | 3 | 19.3 | 138 | 50.5 | active |
| EPS15 | 1 | 2.36 | 19.6 | 12.3 | inactive |
| EPS15 | 2 | -0.55 | -0.905 | 4.92 | inactive |
| EPS15 | 3 | -0.369 | 0.37 | 3.79 | inactive |
| DEFB106A | 1 | -0.77 | -2.45 | 2.41 | inactive |
| DEFB106A | 2 | 0.831 | 8.82 | 6.77 | inactive |
| DEFB106A | 3 | -0.744 | -2.27 | 2.35 | inactive |
| CSK | 1 | -1.05 | -4.43 | 3.92 | inactive |
| CSK | 2 | -0.471 | -0.345 | 5.49 | inactive |
| CSK | 3 | -0.171 | 1.76 | 4.65 | inactive |
| BAGE | 1 | 1.14 | 11 | 10.5 | inactive |
| BAGE | 2 | -0.647 | -1.59 | 3.51 | inactive |
| BAGE | 3 | 4.15 | 32.2 | 16.1 | inactive |
| NDUFB8 | 1 | 0.49 | 6.41 | 8.01 | inactive |
| NDUFB8 | 2 | 0.317 | 5.2 | 7.37 | inactive |
| NDUFB8 | 3 | -1.23 | -5.66 | 1.33 | inactive |
| ARHGAP35 | 1 | 1.42 | 13 | 10.2 | inactive |
| ARHGAP35 | 2 | 0.225 | 4.55 | 5.28 | inactive |
| ARHGAP35 | 3 | 0.492 | 6.43 | 7.57 | inactive |
| DNAJC21 | 1 | -0.636 | -1.51 | 3.61 | inactive |
| DNAJC21 | 2 | -0.0431 | 2.66 | 3.95 | inactive |
| DNAJC21 | 3 | -0.106 | 2.22 | 3.38 | inactive |
| P3H2 | 1 | 8.13 | 60.1 | 24 | active |
| P3H2 | 2 | -1.02 | -4.23 | 4 | inactive |
| P3H2 | 3 | -0.277 | 1.02 | 3.95 | inactive |
| PRXL2B | 1 | -0.49 | -0.482 | 3.99 | inactive |
| PRXL2B | 2 | -0.823 | -2.83 | 2.21 | inactive |
| PRXL2B | 3 | -0.0825 | 2.39 | 3.44 | inactive |
| CAPZA3 | 1 | 0.288 | 5 | 6.09 | inactive |
| CAPZA3 | 2 | -0.891 | -3.3 | 2.35 | inactive |
| CAPZA3 | 3 | -0.619 | -1.39 | 1.41 | inactive |
| KLK2 | 1 | -1.49 | -7.53 | 2.93 | inactive |
| KLK2 | 2 | 4.03 | 31.3 | 16 | inactive |
| KLK2 | 3 | 1.79 | 15.5 | 9.71 | inactive |
| SLC10A5 | 1 | -0.554 | -0.929 | 3.95 | inactive |
| SLC10A5 | 2 | 0.919 | 9.43 | 9.98 | inactive |
| SLC10A5 | 3 | 0.903 | 9.32 | 8.6 | inactive |
| NKD1 | 1 | 0.246 | 4.7 | 6.08 | inactive |
| NKD1 | 2 | 1.28 | 11.9 | 6.74 | inactive |
| NKD1 | 3 | -0.422 | -0.00406 | 2.92 | inactive |
| SGSM1 | 1 | -1.02 | -4.23 | 2.58 | inactive |
| SGSM1 | 2 | 0.779 | 8.45 | 5.78 | inactive |
| SGSM1 | 3 | -0.16 | 1.85 | 3.25 | inactive |
| SCN3B | 1 | 5.88 | 44.4 | 21.4 | active |
| SCN3B | 2 | 2.58 | 21.2 | 11.9 | inactive |
| SCN3B | 3 | -0.61 | -1.32 | 3.86 | inactive |
| JAKMIP1-DT | 1 | -0.662 | -1.69 | 2.75 | inactive |
| JAKMIP1-DT | 2 | 1.2 | 11.4 | 7.81 | inactive |
| JAKMIP1-DT | 3 | -0.0629 | 2.52 | 4.02 | inactive |
| ST3GAL2 | 1 | -0.0222 | 2.81 | 5.51 | inactive |
| ST3GAL2 | 2 | 6.32 | 47.4 | 21.6 | active |
| ST3GAL2 | 3 | 0.756 | 8.29 | 6.7 | inactive |

Part of the list above in another layout:
CHCHD2P10 #3
- G2 robust z-score: 1.47
- G2 cells, % of GMNN control: 13.3
- raw share of cells in G2 (%): 8.81
- call: inactive

ACTN1 #1
- G2 robust z-score: 0.00769
- G2 cells, % of GMNN control: 3.02
- raw share of cells in G2 (%): 5.12
- call: inactive

ACTN1 #2
- G2 robust z-score: -0.307
- G2 cells, % of GMNN control: 0.81
- raw share of cells in G2 (%): 5.36
- call: inactive

ACTN1 #3
- G2 robust z-score: 0.971
- G2 cells, % of GMNN control: 9.8
- raw share of cells in G2 (%): 8.06
- call: inactive

MYO6 #1
- G2 robust z-score: -0.269
- G2 cells, % of GMNN control: 1.07
- raw share of cells in G2 (%): 3.55
- call: inactive

MYO6 #2
- G2 robust z-score: -0.106
- G2 cells, % of GMNN control: 2.22
- raw share of cells in G2 (%): 6.35
- call: inactive

MYO6 #3
- G2 robust z-score: 0.21
- G2 cells, % of GMNN control: 4.44
- raw share of cells in G2 (%): 7.08
- call: inactive

TPX2 #1
- G2 robust z-score: 20.4
- G2 cells, % of GMNN control: 146
- raw share of cells in G2 (%): 54
- call: active
